Molecules are shown by their SMILES.

This series concerns rat. Put plainly: Tail-flick test: antinociception of albuterol, morphine and morphine plus albuterol (% MPE, A50). The class given is in vivo. The source says: The tail flick test was first described by D'Amour and Smith (1941), and remains essentially unchanged in application. (See generally D'Amour, F. E. and Smith, D. L., “A method for determining loss of pain sensation”, J. Pharmacol. Exp. Therap., 72:74-79(1941); Dewey, D. L. and Harris, L. S., The Tail-flick test. In: S. Ehrenpreis and A. Neidle (Eds.), Methods in Narcotic Research, Marcel Dekker, Inc., New York, 1975, pp. 101-109; and Dubner, R. and Ren, K., “Assessing transient and persistent pain in animals.” In: P. D. Wall and R. Melzack (Eds.), Textbook of Pain, Churchill Livingstone, London, 1999, pp. 359-369). Quite simply, the tail of a rat or mouse is exposed to radiant heat, and the latency to withdraw is determined. The basal heat intensity is set so that naive rats withdraw their tails within 2 to 3 sec. A cut-off latency of 10 sec (i.e., 3 to 4 times basal control value) is commonly employed to prevent tissue damage. […]
The tail-flick test is considered to be very robust in that weak analgesic agents are not detected by this test. […]
Baseline refers to the pre-treatment tail-flick latencies, and 8.2 represents the maximal effect. […] The A50 values and confidence intervals for each of the dose-effect curves were determined from linear regression analysis of the logdose-effect curves. […]
(Hot-plate and tail-flick tests time the reaction to a heat stimulus.)

`CN1CC[C@]23c4c5ccc(O)c4O[C@H]2[C@@H](O)C=C[C@H]3[C@H]1C5` [Morphine]: the “slope of dose-response curve” value is 104 (30 minutes) and 123 (60 minutes).
